Screen size: about 1,200 compounds; about 140 (12%) were called active.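 How the source made its calls: active means fitted curve falls past -35% activity change at a dose under twice the top valid dose, in every replicate test; inconclusive means replicate tests disagree on the call; inactive means the rest, including activity in the opposite direction.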 The list lacks most of the strong results.
Test: restoration of mutant CFTR halide transport – FRT cells, YFP quenching, cherry-pick, dose response (AID 743402);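 further: compounds act as correctors raising surface CFTR-F508del before acute activation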
Details: FRT CFTR-F508del YFP iodide quenching, 24 h, channel opened with forskolin and a potentiator; at 26 µM (top of the series) unless noted

Activity change, negative = more quenching (active), inactive:
COc1cccc(N2CCN(C(=O)c3ccc(CS(=O)c4ccc(C)cc4)o3)CC2)c1 (stereo not given) -9.58%
C[C@H]1CCCCO[C@H](CN(C)C(=O)Nc2ccc(C(F)(F)F)cc2)[C@@H](C)CN([C@@H](C)CO)C(=O)c2cc(NC(=O)Nc3ccc(F)cc3)ccc2O1 27.6%
COc1ccc(C#Cc2ccc3c(c2)[C@@H]2[C@@H](CCN2C(=O)c2cccc(F)c2)[C@@H](CO)N3)cc1 10.2%
COCCNc1nc(Nc2ccc(C)cc2C)c2sccc2n1 -9.58%
COc1ccc(CCn2c(NN=C(C)C)nc3c2c(=O)[nH]c(=O)n3C)cc1 -10%
O=C(CCCl)Nc1nc2c(s1)CCc1ccccc1-2 1.61%
COc1cc(/C=C(\C#N)c2nc3ccccc3[nH]2)cc(OC)c1O 1.72%
CCN(C(=O)COC(=O)/C=C/c1c(C)nn(-c2ccccc2)c1C)c1c(N)n(Cc2ccccc2)c(=O)[nH]c1=O 16.2%
COc1cc(OC)cc(C(=O)NC(=S)Nc2ccc3oc(=O)ccc3c2)c1 12.5%
CCOc1ccc(NC(=O)c2ccccc2NC(=O)CNC2CCCC(C)C2C)cc1 (stereo not given) -4.74%
Cc1ccc(NC(=O)c2ccc(Cl)c(S(=O)(=O)Nc3c(C)n(C)n(-c4ccccc4)c3=O)c2)cc1Cl -12.7%
COc1ccc(NC(=O)Nc2ccc3c(c2)C(=O)N([C@H](C)CO)C[C@@H](C)[C@H](CN(C)Cc2ccc(C(F)(F)F)cc2)OCCCC[C@H](C)O3)cc1 6.25%
COc1ccccc1/C=C/C=N/NC(=O)CCn1cnc2ccccc21 0%
O=C(Cc1ccccn1)NCC[C@H]1CC[C@H](NC(=O)Nc2ccc(C(F)(F)F)cc2)[C@H](CO)O1 3.57%
COc1ccc(/C(C)=N/NC(=O)c2cccc(S(=O)(=O)N3CCCC3)c2)c(O)c1 -7.96%
COc1ccc(C#Cc2ccc3c(c2)O[C@H](CN(C)C(=O)Nc2cccc(OC)c2)[C@H](C)CN([C@H](C)CO)S3(=O)=O)cc1 13.1% [at 23.5 µM]
CCCOc1ccc(C(=O)CCCC(=O)c2ccc(OCCC)cc2)cc1 10%
CN1C(=O)c2cc(NC(=O)Cc3ccccc3)ccc2OC[C@@H]2O[C@H](CC(=O)NCc3ccc(Cl)cc3)CC[C@H]21 -16%
Cc1noc(C)c1COc1ccc(C(=O)NNC(=O)c2ccccc2)cc1 -3.12%
C=CCn1c(SCC(=O)N(C)C2CCS(=O)(=O)C2)nc2ccccc2c1=O (stereo not given) 6.46%
COc1cccc(S(=O)(=O)N(C)C[C@@H]2Oc3cc(C4=CCCC4)ccc3S(=O)(=O)N([C@H](C)CO)C[C@H]2C)c1 -3.33%
CCC1(C2=CCCCC2)C(=O)NC(=S)N=C1N (stereo not given) 10%
C[C@@H]1CN([C@@H](C)CO)S(=O)(=O)c2ccc(-c3ccc(C#N)cc3)cc2O[C@H]1CN(C)Cc1cccc(F)c1 0%
CCOC(=O)C1=CN(Cc2ccco2)S(=O)(=O)NC1c1ccc(C(F)(F)F)cc1 (stereo not given) 3.33%
C/C=C/c1ccc([C@H]2[C@@H](CNC(=O)CC)N(C(=O)COC)[C@H]2CO)cc1 15.8%
CCOc1ccccc1N1CCN(C(=O)c2cc3ccccc3cc2OC)CC1 -1.61%
CCN(CC)CCCNc1nc2ccccc2c2nc(-c3ccncc3)nn12 12.9%
CCN1C(=O)[C@H]2[C@@H](c3ccc(-c4ccc(Cl)c(Cl)c4)cc3)N[C@@](C)(C(=O)OC)[C@H]2C1=O 6.67%
CCOc1ccc(S(=O)(=O)N2CCOCC2)cc1NC(=O)CSCC(=O)Nc1ccc(OC)cc1 14.8%
Cc1cccc(C(=O)NCC(=O)OCC(=O)N(C)CC(=O)Nc2ccccc2Cl)c1 9.79%
COc1ccc(Cl)cc1C(=O)NNC(=O)CCNS(=O)(=O)c1ccccc1 8.01%
Cc1occc1C(=O)N/N=C/c1c(O)ccc2ccccc12 9.13%
O=C1CN(S(=O)(=O)Cc2ccccc2)C[C@@H]2[C@@H](c3ccc(C#Cc4cccc(F)c4)cc3)[C@@H](CO)N12 -10.7%
C[C@H]1CCCCO[C@@H](CN(C)C(=O)C2CCCCC2)[C@@H](C)CN([C@@H](C)CO)C(=O)c2cc(NC(=O)Nc3ccc(C(F)(F)F)cc3)ccc2O1 13.4% [at 23.5 µM]
CCc1c(C)nc2ncnn2c1NCCc1ccc(OC)cc1 0%
CC1Cc2ccccc2N1S(=O)(=O)c1cccc(C(=O)N2CCN(c3ncccn3)CC2)c1 (stereo not given) 6.67%
CCCC(=O)NC(NC(=S)Nc1ccc(N=Nc2ccccc2)cc1)C(Cl)(Cl)Cl (stereo not given) -18.4%
O=C(Cc1ccccn1)NCC[C@@H]1CC[C@H](NC(=O)Nc2ccc(C(F)(F)F)cc2)[C@@H](CO)O1 3.12%
CN(C(=O)c1ccccc1C(=O)OCC(=O)Nc1ccc(S(N)(=O)=O)cc1)c1ccccc1 -3.33%
COc1cccc(N=Nc2ccc3cccnc3c2O)c1 9.79%
COc1ccc(OC)c(-c2cnc(OC(C)(C)C)nc2OC(C)(C)C)c1 3.12%
CC(=O)NS(=O)(=O)c1ccc(NC(=O)CSc2ccc(Cl)cc2)cc1 3.57%
O=C(NCCCN1CCOCC1)c1cc(S(=O)(=O)N2CCOCC2)c(Cl)cc1Cl 6.67%
Cc1ccc(OCC(=O)Nc2ccc3c(c2)ncn3C)cc1 -6.67%
Cc1ccc(-c2cccc(CN3CCN(C(C)C)C(CCO)C3)c2)o1 (stereo not given) 16.2%
CC(=NNC(=S)N1CCCCC1)c1cccc(C)n1 0%
CC12CCC(CC1O)C2C(=O)O (stereo not given) -10.7%
O=C(N/N=C/c1ccccc1OC(F)F)c1cc(-c2ccncc2)nc2ccccc12 12.5%
Cc1ccc(C(=O)Nc2cccc(C(F)(F)F)c2)cc1Nc1cnccn1 20%
Cc1ccnc2c1ccc1cccnc12 13.1%

Sorted by molar mass (low to high): part of the list above.
Activity change, negative = more quenching (active), inactive:
CCc1c(C)nc2ncnn2c1NCCc1ccc(OC)cc1 0%
CCCOc1ccc(C(=O)CCCC(=O)c2ccc(OCCC)cc2)cc1 10%
O=C1CN(S(=O)(=O)Cc2ccccc2)C[C@@H]2[C@@H](c3ccc(C#Cc4cccc(F)c4)cc3)[C@@H](CO)N12 -10.7%

From PubChem BioAssay AID743402 (Broad Institute, 2014)
